PubChem BioAssay AID1224830 | NIAID, 2016
Aim: 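Regulators of TLR4 signalling towards TNF-alpha in macrophage-like cells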 (primary screen). System: human THP-1 monocytic leukaemia cells, TNF dual-luciferase reporter clone, PMA-differentiated to macrophage-like cells. Reagents: siRNA pool against human genes, 50 nM. Timing: LPS for 4 h, given about 3 days after siRNA transfection. Conditions: bacterial LPS (TLR4 ligand), 10 ng/ml. Measurement: 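Ratio of firefly to renilla light, scaled to the plate median and expressed as a robust z-score per replicate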. Direction: TNF reporter robust z-score: higher = stronger TNF reporter response to LPS. Hit rule: 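a well is active when its z-score exceeds 2.8 or falls below -1.5; control wells carry no call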.
The whole screen tested about 18,000 reagents; below is an unselected part. In the full data, about 2,900 (16%) got an active call. 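Calls are made per well; low scores hint the gene aids the LPS response, high scores that it dampens it.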 Repeated entries: four replicate wells of each siRNA pool. Reagent sequences are not shown.

gene symbol | TNF reporter robust z-score | call
VPS36 (vacuolar protein sorting 36 homolog) | -1.95 | active
VPS36 (vacuolar protein sorting 36 homolog) | -1.76 | active
VPS36 (vacuolar protein sorting 36 homolog) | -2 | active
VPS36 (vacuolar protein sorting 36 homolog) | -2.01 | active
C11orf58 (chromosome 11 open reading frame 58) | 0.45 | inactive
C11orf58 (chromosome 11 open reading frame 58) | 2.5 | inactive
C11orf58 (chromosome 11 open reading frame 58) | 1.08 | inactive
C11orf58 (chromosome 11 open reading frame 58) | 1.09 | inactive
PHF2 (PHD finger protein 2) | 1.26 | inactive
PHF2 (PHD finger protein 2) | -0.75 | inactive
PHF2 (PHD finger protein 2) | 0.56 | inactive
PHF2 (PHD finger protein 2) | -0.56 | inactive
TMPRSS6 (transmembrane serine protease 6) | 0.09 | inactive
TMPRSS6 (transmembrane serine protease 6) | -0.96 | inactive
TMPRSS6 (transmembrane serine protease 6) | -0.59 | inactive
TMPRSS6 (transmembrane serine protease 6) | -0.3 | inactive
BTF3L4 (basic transcription factor 3 like 4) | -0.03 | inactive
BTF3L4 (basic transcription factor 3 like 4) | 2.39 | inactive
BTF3L4 (basic transcription factor 3 like 4) | 0.49 | inactive
BTF3L4 (basic transcription factor 3 like 4) | 0.97 | inactive
ZNF470 (zinc finger protein 470) | 1.52 | inactive
ZNF470 (zinc finger protein 470) | 3.17 | active
ZNF470 (zinc finger protein 470) | 3.37 | active
ZNF470 (zinc finger protein 470) | 1.44 | inactive
CCL18 (C-C motif chemokine ligand 18) | -0.62 | inactive
CCL18 (C-C motif chemokine ligand 18) | -1.28 | inactive
CCL18 (C-C motif chemokine ligand 18) | -1.34 | inactive
CCL18 (C-C motif chemokine ligand 18) | -1.02 | inactive
PRTFDC1 (phosphoribosyl transferase domain containing 1) | 0.9 | inactive
PRTFDC1 (phosphoribosyl transferase domain containing 1) | 1.85 | inactive
PRTFDC1 (phosphoribosyl transferase domain containing 1) | -0.29 | inactive
PRTFDC1 (phosphoribosyl transferase domain containing 1) | 0.27 | inactive
PLAU (plasminogen activator, urokinase) | -0.68 | inactive
PLAU (plasminogen activator, urokinase) | 0.33 | inactive
PLAU (plasminogen activator, urokinase) | -0.61 | inactive
PLAU (plasminogen activator, urokinase) | 0.93 | inactive
IFNA5 (interferon alpha 5) | 1.18 | inactive
IFNA5 (interferon alpha 5) | 1.99 | inactive
IFNA5 (interferon alpha 5) | 2.34 | inactive
IFNA5 (interferon alpha 5) | -0.38 | inactive
USP46 (ubiquitin specific peptidase 46) | -0.29 | inactive
USP46 (ubiquitin specific peptidase 46) | -1.43 | inactive
USP46 (ubiquitin specific peptidase 46) | -0.5 | inactive
USP46 (ubiquitin specific peptidase 46) | 0.8 | inactive
RNF10 (ring finger protein 10) | 0.97 | inactive
RNF10 (ring finger protein 10) | 3.26 | active
RNF10 (ring finger protein 10) | -2.51 | active
RNF10 (ring finger protein 10) | 1.71 | inactive
OR2T12 (olfactory receptor family 2 subfamily T member 12) | 0 | inactive
OR2T12 (olfactory receptor family 2 subfamily T member 12) | 0.45 | inactive
OR2T12 (olfactory receptor family 2 subfamily T member 12) | 0.71 | inactive
OR2T12 (olfactory receptor family 2 subfamily T member 12) | 0.73 | inactive
CABP5 (calcium binding protein 5) | 2.46 | inactive
CABP5 (calcium binding protein 5) | 2.66 | inactive
CABP5 (calcium binding protein 5) | 1.57 | inactive
CABP5 (calcium binding protein 5) | -0.09 | inactive
FERMT1 (FERM domain containing kindlin 1) | -0.3 | inactive
FERMT1 (FERM domain containing kindlin 1) | -0.17 | inactive
FERMT1 (FERM domain containing kindlin 1) | 0.23 | inactive
FERMT1 (FERM domain containing kindlin 1) | -0.16 | inactive
OR4C12 (olfactory receptor family 4 subfamily C member 12) | -0.38 | inactive
OR4C12 (olfactory receptor family 4 subfamily C member 12) | 0.39 | inactive
OR4C12 (olfactory receptor family 4 subfamily C member 12) | -0.02 | inactive
OR4C12 (olfactory receptor family 4 subfamily C member 12) | 0 | inactive
BUD31 (BUD31 spliceosome associated protein) | -0.05 | inactive
BUD31 (BUD31 spliceosome associated protein) | 0.02 | inactive
BUD31 (BUD31 spliceosome associated protein) | -0.84 | inactive
BUD31 (BUD31 spliceosome associated protein) | 0.25 | inactive
CSN2 (casein beta) | 1.35 | inactive
CSN2 (casein beta) | 0.42 | inactive
CSN2 (casein beta) | -0.11 | inactive
CSN2 (casein beta) | -0.02 | inactive
ANKS3 (ankyrin repeat and sterile alpha motif domain containing 3) | -0.32 | inactive
ANKS3 (ankyrin repeat and sterile alpha motif domain containing 3) | -0.18 | inactive
ANKS3 (ankyrin repeat and sterile alpha motif domain containing 3) | -1.34 | inactive
ANKS3 (ankyrin repeat and sterile alpha motif domain containing 3) | -0.81 | inactive
COMMD2 (COMM domain containing 2) | -0.26 | inactive
COMMD2 (COMM domain containing 2) | -1.57 | active
COMMD2 (COMM domain containing 2) | -1.37 | inactive
COMMD2 (COMM domain containing 2) | -1.21 | inactive
GRK2 (G protein-coupled receptor kinase 2) | 0.19 | inactive
GRK2 (G protein-coupled receptor kinase 2) | -1.15 | inactive
GRK2 (G protein-coupled receptor kinase 2) | -0.82 | inactive
DDR1 (discoidin domain receptor tyrosine kinase 1) | 0.5 | inactive
DDR1 (discoidin domain receptor tyrosine kinase 1) | 1.18 | inactive
DDR1 (discoidin domain receptor tyrosine kinase 1) | 0.76 | inactive
DDR1 (discoidin domain receptor tyrosine kinase 1) | 1.69 | inactive
ACY1 (aminoacylase 1) | -0.5 | inactive
ACY1 (aminoacylase 1) | -0.25 | inactive
ACY1 (aminoacylase 1) | -0.11 | inactive
ACY1 (aminoacylase 1) | 0 | inactive
FKBP10 (FKBP prolyl isomerase 10) | 4.12 | active
FKBP10 (FKBP prolyl isomerase 10) | 1.98 | inactive
FKBP10 (FKBP prolyl isomerase 10) | 3.11 | active
FKBP10 (FKBP prolyl isomerase 10) | 4.42 | active

Already shown: 10 of the entries above.
gene symbol | TNF reporter robust z-score | call
CSN2 (casein beta) | -0.11 | inactive
CSN2 (casein beta) | -0.02 | inactive
ANKS3 (ankyrin repeat and sterile alpha motif domain containing 3) | -0.32 | inactive
ANKS3 (ankyrin repeat and sterile alpha motif domain containing 3) | -0.18 | inactive
ANKS3 (ankyrin repeat and sterile alpha motif domain containing 3) | -1.34 | inactive
ANKS3 (ankyrin repeat and sterile alpha motif domain containing 3) | -0.81 | inactive
COMMD2 (COMM domain containing 2) | -0.26 | inactive
COMMD2 (COMM domain containing 2) | -1.57 | active
COMMD2 (COMM domain containing 2) | -1.37 | inactive
COMMD2 (COMM domain containing 2) | -1.21 | inactive

More records follow.
gene symbol | TNF reporter robust z-score | call
MDH2 (malate dehydrogenase 2) | -0.13 | inactive
MDH2 (malate dehydrogenase 2) | 1.59 | inactive
MDH2 (malate dehydrogenase 2) | 1.11 | inactive
MDH2 (malate dehydrogenase 2) | 1.77 | inactive
NOC2L (NOC2 like nucleolar associated transcriptional repressor) | -0.62 | inactive
NOC2L (NOC2 like nucleolar associated transcriptional repressor) | 0.77 | inactive
NOC2L (NOC2 like nucleolar associated transcriptional repressor) | 0.55 | inactive
NOC2L (NOC2 like nucleolar associated transcriptional repressor) | -0.24 | inactive
GNB3 (G protein subunit beta 3) | -0.41 | inactive
GNB3 (G protein subunit beta 3) | -0.02 | inactive
GNB3 (G protein subunit beta 3) | -0.3 | inactive
GNB3 (G protein subunit beta 3) | 0.07 | inactive
NOL8 (nucleolar protein 8) | 1.06 | inactive
NOL8 (nucleolar protein 8) | 1.62 | inactive
NOL8 (nucleolar protein 8) | 0.02 | inactive
NOL8 (nucleolar protein 8) | 0.5 | inactive
CAST (calpastatin) | -0.49 | inactive
CAST (calpastatin) | -0.64 | inactive
CAST (calpastatin) | -1.64 | active
CAST (calpastatin) | -1.24 | inactive
CCDC138 (coiled-coil domain containing 138) | 1.07 | inactive
CCDC138 (coiled-coil domain containing 138) | -0.35 | inactive
CCDC138 (coiled-coil domain containing 138) | 0.75 | inactive
CCDC138 (coiled-coil domain containing 138) | 1.64 | inactive
IMP3 (IMP U3 small nucleolar ribonucleoprotein 3) | 0.13 | inactive
IMP3 (IMP U3 small nucleolar ribonucleoprotein 3) | 0.34 | inactive
IMP3 (IMP U3 small nucleolar ribonucleoprotein 3) | -0.71 | inactive
IMP3 (IMP U3 small nucleolar ribonucleoprotein 3) | 0.72 | inactive
AAK1 (AP2 associated kinase 1) | -1.68 | active
AAK1 (AP2 associated kinase 1) | -1.72 | active
AAK1 (AP2 associated kinase 1) | -1.87 | active
AAK1 (AP2 associated kinase 1) | -1.26 | inactive
GOLGB1 (golgin B1) | 0.22 | inactive
GOLGB1 (golgin B1) | 1.76 | inactive
GOLGB1 (golgin B1) | 1.13 | inactive
GOLGB1 (golgin B1) | 0.81 | inactive
OR52N1 (olfactory receptor family 52 subfamily N member 1) | -0.55 | inactive
OR52N1 (olfactory receptor family 52 subfamily N member 1) | -0.78 | inactive
OR52N1 (olfactory receptor family 52 subfamily N member 1) | -0.89 | inactive
OR52N1 (olfactory receptor family 52 subfamily N member 1) | -0.15 | inactive
MTX1 (metaxin 1) | -0.43 | inactive
MTX1 (metaxin 1) | -0.54 | inactive
MTX1 (metaxin 1) | -0.72 | inactive
MTX1 (metaxin 1) | -0.9 | inactive
HSD3B7 | -0.54 | inactive
HSD3B7 | 0.11 | inactive
HSD3B7 | -0.89 | inactive
HSD3B7 | -0.8 | inactive
